Here are results for two sequences from publication PMC10136435.

For some of these results: Construct, isoform or probe ends are uncertain for at least one entry. The direction of at least one scale is not stated here.

Experiment in all cases: electrochemical impedance spectroscopy (CNF-IL/PGE)
In data set [1] the test system is activated protein C (APC) (human). The note with it: 5'-NH2 on strand 1, Solution-phase interaction (5 min; 1-5 min with AD22) in PBS or FBS diluted in PBS (1:2000 for selectivity), then 10 min immobilization on CNF-IL/PGE, EIS in redox probe, commercial protein.
Data set [2] deals with bovine serum albumin (BSA) (bovine) (UniProt P02769). The note with it: FBS:PBS 1:2000, 0.6 ug/mL protein, Rct 157 +/- 9.19 Ohm; 5'-NH2; Solution-phase interaction (5 min; 1-5 min with AD22) in PBS or FBS diluted in PBS (1:2000 for selectivity), then 10 min immobilization on CNF-IL/PGE; EIS in redox probe; commercial protein; single-stranded DNA; counted as no binding.
The test system of another data set is thrombin (THR). The note with it: FBS:PBS 1:2000, 0.6 ug/mL protein, Rct 202.00 +/- 33.60 Ohm; 5'-NH2; Solution-phase interaction (5 min; 1-5 min with AD22) in PBS or FBS diluted in PBS (1:2000 for selectivity), then 10 min immobilization on CNF-IL/PGE; EIS in redox probe; commercial protein; single-stranded DNA; counted as no binding.

Regarding “GCCTCCTAACTGAGCTGTACTCGACTTATCCCGGATGGGGCTCTTAGGAGGC / ATCCGGGATAAGTCGAGTACAG [DNA-Apt-AD22 aptamer-antidote pair]”, the binding signal (% Rct change vs DNA-Apt + APC) was -23.2 in data set [1] (artificial serum (FBS), 0.1 ug/mL aptamer, 0.1 ug/mL AD22, 0.6 ug/mL APC, Rct 295.75 +/- 18.41 Ohm); -6.8 in data set [1] (buffer, 1 min interaction, Rct 292 +/- 55.76 Ohm, at 2 and 5 min Rct rose by 26.50% and 52.54%).

On to “GCCTCCTAACTGAGCTGTACTCGACTTATCCCGGATGGGGCTCTTAGGAGGC [DNA-Apt (HS02-52G)]”, for which the binding signal (% Rct change vs DNA-Apt alone) in data set [2] was -33.8; in the data set on thrombin (THR) it was -15.2.
